This passage reports binding results from PMC11222974.

Amino acid sequences for entries named in this document (tags omitted). Residues count along the entry.
UniProt P04275, residues 764-2813: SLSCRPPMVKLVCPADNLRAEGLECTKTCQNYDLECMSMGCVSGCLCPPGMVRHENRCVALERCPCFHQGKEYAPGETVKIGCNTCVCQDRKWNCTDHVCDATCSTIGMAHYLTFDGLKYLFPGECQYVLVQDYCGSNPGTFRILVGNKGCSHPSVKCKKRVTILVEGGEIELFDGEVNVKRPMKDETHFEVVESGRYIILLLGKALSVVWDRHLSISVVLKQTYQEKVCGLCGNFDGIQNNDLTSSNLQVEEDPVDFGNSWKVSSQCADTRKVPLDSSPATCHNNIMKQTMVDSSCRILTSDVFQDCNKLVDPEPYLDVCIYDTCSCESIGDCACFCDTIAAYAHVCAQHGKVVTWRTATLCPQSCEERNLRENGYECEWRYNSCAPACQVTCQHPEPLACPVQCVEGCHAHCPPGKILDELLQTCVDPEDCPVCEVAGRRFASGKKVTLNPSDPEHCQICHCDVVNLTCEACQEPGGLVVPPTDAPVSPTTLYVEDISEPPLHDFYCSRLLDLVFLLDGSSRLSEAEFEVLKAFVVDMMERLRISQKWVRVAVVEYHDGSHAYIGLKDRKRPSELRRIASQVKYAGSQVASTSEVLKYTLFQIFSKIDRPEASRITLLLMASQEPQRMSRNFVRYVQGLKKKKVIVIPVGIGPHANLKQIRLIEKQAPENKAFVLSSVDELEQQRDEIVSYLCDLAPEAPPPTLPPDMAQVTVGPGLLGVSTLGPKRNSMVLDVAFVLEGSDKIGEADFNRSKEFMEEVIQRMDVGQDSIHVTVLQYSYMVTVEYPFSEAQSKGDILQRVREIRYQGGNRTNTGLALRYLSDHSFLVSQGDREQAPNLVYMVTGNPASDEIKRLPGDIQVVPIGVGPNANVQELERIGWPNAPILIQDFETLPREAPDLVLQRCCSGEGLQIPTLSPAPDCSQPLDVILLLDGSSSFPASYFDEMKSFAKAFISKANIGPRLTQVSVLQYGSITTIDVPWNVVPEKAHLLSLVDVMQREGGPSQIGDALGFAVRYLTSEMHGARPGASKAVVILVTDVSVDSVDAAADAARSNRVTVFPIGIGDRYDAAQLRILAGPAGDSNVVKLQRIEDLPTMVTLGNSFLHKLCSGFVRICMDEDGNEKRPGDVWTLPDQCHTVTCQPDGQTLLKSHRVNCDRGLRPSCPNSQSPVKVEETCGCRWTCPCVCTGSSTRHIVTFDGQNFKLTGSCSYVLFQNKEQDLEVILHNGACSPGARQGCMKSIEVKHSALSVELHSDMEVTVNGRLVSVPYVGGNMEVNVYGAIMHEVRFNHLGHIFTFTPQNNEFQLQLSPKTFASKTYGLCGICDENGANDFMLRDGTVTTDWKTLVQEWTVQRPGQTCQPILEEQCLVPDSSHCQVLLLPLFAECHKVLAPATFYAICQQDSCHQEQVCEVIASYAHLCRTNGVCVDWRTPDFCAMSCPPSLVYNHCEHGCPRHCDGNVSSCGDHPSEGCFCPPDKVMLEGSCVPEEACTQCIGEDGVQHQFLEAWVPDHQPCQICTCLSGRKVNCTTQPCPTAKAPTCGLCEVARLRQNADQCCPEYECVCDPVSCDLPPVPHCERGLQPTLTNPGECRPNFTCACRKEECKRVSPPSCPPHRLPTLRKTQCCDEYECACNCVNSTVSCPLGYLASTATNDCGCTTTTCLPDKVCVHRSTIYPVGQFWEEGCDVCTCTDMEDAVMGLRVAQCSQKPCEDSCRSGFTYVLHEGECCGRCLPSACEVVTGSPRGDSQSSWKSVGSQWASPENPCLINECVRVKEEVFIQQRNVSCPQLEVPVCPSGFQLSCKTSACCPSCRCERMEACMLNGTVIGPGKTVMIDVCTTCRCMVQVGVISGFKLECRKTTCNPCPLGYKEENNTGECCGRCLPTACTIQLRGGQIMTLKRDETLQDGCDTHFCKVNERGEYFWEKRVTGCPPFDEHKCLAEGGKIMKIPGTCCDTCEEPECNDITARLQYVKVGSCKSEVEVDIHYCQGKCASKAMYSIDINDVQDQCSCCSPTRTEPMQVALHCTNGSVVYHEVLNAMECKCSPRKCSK

Results are given in words; binding and its absence hold for the method and conditions named. Some entries that bind do so weakly or less than the wild type.

In the test the target is T1, integrin αL chain (UniProt P20701).
T1 sequence: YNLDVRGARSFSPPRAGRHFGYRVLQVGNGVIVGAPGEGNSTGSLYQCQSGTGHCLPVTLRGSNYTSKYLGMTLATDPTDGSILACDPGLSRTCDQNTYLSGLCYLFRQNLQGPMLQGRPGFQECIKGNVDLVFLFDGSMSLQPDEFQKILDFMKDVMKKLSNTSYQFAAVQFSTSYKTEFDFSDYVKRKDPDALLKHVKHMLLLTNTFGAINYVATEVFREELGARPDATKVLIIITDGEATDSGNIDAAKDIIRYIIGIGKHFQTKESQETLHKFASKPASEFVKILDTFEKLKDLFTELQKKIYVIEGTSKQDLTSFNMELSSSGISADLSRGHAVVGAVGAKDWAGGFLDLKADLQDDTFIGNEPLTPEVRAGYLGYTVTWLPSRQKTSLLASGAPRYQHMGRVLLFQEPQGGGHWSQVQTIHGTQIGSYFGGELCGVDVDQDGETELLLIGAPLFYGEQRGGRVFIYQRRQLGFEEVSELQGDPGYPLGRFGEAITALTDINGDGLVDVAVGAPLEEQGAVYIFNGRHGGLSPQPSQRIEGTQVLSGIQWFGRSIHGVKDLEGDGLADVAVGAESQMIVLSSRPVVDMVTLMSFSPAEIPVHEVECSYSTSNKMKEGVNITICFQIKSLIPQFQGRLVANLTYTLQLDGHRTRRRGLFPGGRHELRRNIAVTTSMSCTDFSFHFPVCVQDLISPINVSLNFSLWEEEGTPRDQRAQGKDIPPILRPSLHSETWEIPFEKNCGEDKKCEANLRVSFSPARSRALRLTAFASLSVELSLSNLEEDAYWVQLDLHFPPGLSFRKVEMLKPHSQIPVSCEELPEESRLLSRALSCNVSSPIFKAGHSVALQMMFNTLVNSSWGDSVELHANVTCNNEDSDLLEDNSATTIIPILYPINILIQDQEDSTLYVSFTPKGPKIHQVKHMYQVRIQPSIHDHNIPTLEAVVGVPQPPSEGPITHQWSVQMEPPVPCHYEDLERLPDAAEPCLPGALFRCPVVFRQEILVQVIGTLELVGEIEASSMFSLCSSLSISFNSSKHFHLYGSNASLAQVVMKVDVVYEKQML
Description: SPR; Biacore 3000, 25°C; integrin αL amine-coupled to CM5 (~500 RU), soluble VWF or VWF-A2 flowed over at 30 μL/min in TBSTG (25 mM Tris pH 7.5, 150 mM NaCl, 0.05% Tween, 2% glycerol); apparent; both purified. Background: Surface plasmon resonance follows binding to a sensor surface in real time, without labels.

For the substance “factor VIII‐free Von Willebrand factor (from UniProt P04275 764-2813)”, the binding result is “binds”.
